No constants are given. Whether binding was seen depends on the method and setting. In cells and extracts the contact can be indirect. These calls come from enrichment with a bait or labelling near it, and not all partners need be listed. Where a sequence is shown, tags or fusion partners need not be part of it.
B1: carbonic anhydrase 1 (CA1) of mouse blood cell lysate (protein, UniProt P13634 1-261)
chain: MASADWGYGSENGPDQWSKLYPIANGNNQSPIDIKTSEANHDSSLKPLSISYNPATAKEIVNVGHSFHVIFDDSSNQSVLKGGPLADSYRLTQFHFHWGNSNDHGSEHTVDGTRYSGELHLVHWNSAKYSSASEAISKADGLAILGVLMKVGPANPSLQKVLDALNSVKTKGKRAPFTNFDPSSLLPSSLDYWTYFGSLTHPPLHESVTWVICKDSISLSPEQLAQLRGLLSSAEGEPAVPVLSNHRPPQPLKGRTVRASF
B2: retinal dehydrogenase 1 (ALDH1A1) of mouse blood cell lysate (protein, UniProt P24549 1-501)
chain: MSSPAQPAVPAPLADLKIQHTKIFINNEWHNSVSGKKFPVLNPATEEVICHVEEGDKADVDKAVKAARQAFQIGSPWRTMDASERGRLLNKLADLMERDRLLLATMEALNGGKVFANAYLSDLGGCIKALKYCAGWADKIHGQTIPSDGDIFTYTRREPIGVCGQIIPWNFPMLMFIWKIGPALSCGNTVVVKPAEQTPLTALHLASLIKEAGFPPGVVNIVPGYGPTAGAAISSHMDVDKVAFTGSTQVGKLIKEAAGKSNLKRVTLELGGKSPCIVFADADLDIAVEFAHHGVFYHQGQCCVAASRIFVEESVYDEFVKRSVERAKKYVLGNPLTPGINQGPQIDKEQHDKILDLIESGKKEGAKLECGGGRWGNKGFFVQPTVFSNVTDEMRIAKEEIFGPVQQIMKFKSVDDVIKRANNTTYGLAAGLFTKDLDKAITVSSALQAGVVWVNCYMMLSAQCPFGGFKMSGNGRELGEHGLYEYTELKTVAMKISQKNS
B3: glutamate–cysteine ligase regulatory subunit (GCLM) of mouse blood cell lysate (protein, UniProt O09172 1-274)
chain: MGTDSRAAGALLARASTLHLQTGNLLNWGRLRKKCPSTHSEELRDCIQKTLNEWSSQISPDLVREFPDVLECTMSHAVEKINPDEREEMKVSAKLFIVGSNSSSSTRSAVDMACSVLGVAQLDSVIMASPPIEDGVNLSLEHLQPYWEELENLVQSKKIVAIGTSDLDKTQLEQLYQWAQVKPNSNQVNLASCCVMPPDLTAFAKQFDIQLLTHNDPKELLSEASFQEALQESIPDIEAQDWVPLWLLRYSVIVKSRGIIKSKGYILQAKRRGS
B4: S-formylglutathione hydrolase (ESD) of mouse blood cell lysate (protein, UniProt Q9R0P3 1-282)
chain: MALKQISSNRCFGGLQKVFEHSSVELKCKMRFAVYLPPQAESGKCPALYWLSGLTCTEQNFISKSGYQQAASEHGLVVIAPDTSPRGCNIKGEDDSWDFGTGAGFYVNATEDPWKANYRMYSYVTEELPQLINANFPVDPQRMSIFGHSMGGHGALICALKNPGKYRSVSAFAPICNPVLCSWGKKAFSGYLGPDESKWKAYDATCLVKAYSGSQIDILIDQGKDDEFLSNGQLLPDNFIAACTEKKIPVVFRLQEGYDHSYYFIATFIADHIRHHAKYLNA

The chains behind the UniProt entries cited, without tags or fusion partners.
UniProt Q8BJY1: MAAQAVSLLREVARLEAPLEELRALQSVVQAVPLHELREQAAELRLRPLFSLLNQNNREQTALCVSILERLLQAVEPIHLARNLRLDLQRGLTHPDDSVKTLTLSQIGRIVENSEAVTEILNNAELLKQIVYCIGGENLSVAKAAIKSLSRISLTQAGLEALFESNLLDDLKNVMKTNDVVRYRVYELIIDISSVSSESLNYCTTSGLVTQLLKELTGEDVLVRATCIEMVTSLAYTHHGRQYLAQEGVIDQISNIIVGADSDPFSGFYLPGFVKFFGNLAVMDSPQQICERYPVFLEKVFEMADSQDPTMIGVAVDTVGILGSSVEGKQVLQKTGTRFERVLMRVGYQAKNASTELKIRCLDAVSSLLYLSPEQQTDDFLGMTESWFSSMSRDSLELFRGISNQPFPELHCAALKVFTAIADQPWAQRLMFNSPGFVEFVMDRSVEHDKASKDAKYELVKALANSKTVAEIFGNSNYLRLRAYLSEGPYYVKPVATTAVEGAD

These molecules were tested against T1, α2M–ALFA–His (human (cDNA from HepG2)) (UniProt P01023) (assay: affinity purification with mass spectrometry; purified α2M–ALFA (0.14 μM) mixed with mouse blood cell (RBC) lysate, 50 °C (heat stress) or 4 °C for 1 h; ALFA tag-nanobody sepharose 2 h at 4 °C, washed four times with PBS; ruby staining and mass spectrometry; only the target purified).
T1 sequence: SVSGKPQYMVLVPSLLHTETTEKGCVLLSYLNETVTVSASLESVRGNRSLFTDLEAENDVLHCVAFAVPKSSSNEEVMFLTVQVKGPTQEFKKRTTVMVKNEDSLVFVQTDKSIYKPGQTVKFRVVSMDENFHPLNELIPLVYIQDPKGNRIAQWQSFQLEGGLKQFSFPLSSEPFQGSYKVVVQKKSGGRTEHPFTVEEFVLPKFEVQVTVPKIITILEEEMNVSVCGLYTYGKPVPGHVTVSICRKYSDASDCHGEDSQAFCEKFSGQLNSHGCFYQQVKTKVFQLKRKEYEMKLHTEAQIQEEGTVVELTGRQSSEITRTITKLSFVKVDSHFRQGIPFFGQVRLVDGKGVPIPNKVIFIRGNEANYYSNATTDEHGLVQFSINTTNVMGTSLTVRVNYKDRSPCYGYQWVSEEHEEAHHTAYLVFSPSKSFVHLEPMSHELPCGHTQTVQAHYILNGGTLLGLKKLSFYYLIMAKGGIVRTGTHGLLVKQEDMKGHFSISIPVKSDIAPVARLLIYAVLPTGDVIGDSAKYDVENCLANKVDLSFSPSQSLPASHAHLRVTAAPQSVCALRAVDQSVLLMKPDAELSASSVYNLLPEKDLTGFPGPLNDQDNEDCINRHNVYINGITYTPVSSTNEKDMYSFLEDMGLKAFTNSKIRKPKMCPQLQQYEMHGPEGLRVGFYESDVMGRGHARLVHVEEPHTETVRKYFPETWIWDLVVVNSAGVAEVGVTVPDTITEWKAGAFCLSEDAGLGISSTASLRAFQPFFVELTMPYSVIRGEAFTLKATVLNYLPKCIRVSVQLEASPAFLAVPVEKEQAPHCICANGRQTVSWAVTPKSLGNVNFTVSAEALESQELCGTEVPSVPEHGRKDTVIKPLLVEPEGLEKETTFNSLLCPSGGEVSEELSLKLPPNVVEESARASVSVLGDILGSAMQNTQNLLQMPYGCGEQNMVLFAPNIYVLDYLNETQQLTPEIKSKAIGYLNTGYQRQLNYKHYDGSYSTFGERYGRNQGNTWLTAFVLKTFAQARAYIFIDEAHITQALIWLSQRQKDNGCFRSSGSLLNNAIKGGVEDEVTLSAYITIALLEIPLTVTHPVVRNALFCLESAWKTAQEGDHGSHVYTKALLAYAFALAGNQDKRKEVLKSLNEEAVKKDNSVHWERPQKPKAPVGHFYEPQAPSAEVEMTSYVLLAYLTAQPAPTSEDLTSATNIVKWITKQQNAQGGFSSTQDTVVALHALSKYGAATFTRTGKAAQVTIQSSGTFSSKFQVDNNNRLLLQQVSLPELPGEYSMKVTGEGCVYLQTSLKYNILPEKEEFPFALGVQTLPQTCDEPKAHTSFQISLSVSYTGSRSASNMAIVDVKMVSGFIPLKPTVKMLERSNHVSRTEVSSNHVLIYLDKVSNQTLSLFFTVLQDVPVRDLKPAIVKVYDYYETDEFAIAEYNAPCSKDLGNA

binding, binds:
26S proteasome non-ATPase regulatory subunit 5 (PSMD5) of mouse blood cell lysate (from UniProt Q8BJY1 1-504), carbonic anhydrase 2 (CA2) of mouse blood cell lysate (from UniProt P00920 1-260), B1, B2, B3, B4
